The text below walks through data of the supplement of paper PMC7666118.

Amino acid sequences for entries named in this document (tags omitted). A change or cut given only in a name is not applied to a line headed by its entry.
UniProt Q9H074: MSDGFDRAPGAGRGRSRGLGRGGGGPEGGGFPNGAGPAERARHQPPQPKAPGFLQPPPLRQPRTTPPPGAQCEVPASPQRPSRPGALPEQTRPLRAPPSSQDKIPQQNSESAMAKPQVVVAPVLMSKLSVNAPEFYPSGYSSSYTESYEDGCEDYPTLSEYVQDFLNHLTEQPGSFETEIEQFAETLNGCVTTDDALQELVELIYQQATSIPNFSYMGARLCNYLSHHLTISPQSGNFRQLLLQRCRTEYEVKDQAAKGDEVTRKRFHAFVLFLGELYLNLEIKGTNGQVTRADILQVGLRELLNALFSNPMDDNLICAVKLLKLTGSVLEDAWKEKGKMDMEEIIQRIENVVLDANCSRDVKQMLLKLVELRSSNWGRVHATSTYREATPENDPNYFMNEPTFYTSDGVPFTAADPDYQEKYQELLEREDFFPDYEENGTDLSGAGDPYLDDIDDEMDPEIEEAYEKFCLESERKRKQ
UniProt Q9NTK5, whole entry, looked up: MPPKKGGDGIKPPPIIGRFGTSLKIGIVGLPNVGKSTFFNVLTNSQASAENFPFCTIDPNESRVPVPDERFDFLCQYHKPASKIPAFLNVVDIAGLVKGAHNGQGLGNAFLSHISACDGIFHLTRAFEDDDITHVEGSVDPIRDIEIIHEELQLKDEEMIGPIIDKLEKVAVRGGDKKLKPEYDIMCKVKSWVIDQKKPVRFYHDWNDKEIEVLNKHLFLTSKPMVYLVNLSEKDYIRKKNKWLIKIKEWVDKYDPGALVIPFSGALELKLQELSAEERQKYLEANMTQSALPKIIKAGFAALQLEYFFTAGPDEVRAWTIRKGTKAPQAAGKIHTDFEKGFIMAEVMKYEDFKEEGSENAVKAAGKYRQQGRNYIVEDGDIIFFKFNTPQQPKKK
UniProt Q96RE7: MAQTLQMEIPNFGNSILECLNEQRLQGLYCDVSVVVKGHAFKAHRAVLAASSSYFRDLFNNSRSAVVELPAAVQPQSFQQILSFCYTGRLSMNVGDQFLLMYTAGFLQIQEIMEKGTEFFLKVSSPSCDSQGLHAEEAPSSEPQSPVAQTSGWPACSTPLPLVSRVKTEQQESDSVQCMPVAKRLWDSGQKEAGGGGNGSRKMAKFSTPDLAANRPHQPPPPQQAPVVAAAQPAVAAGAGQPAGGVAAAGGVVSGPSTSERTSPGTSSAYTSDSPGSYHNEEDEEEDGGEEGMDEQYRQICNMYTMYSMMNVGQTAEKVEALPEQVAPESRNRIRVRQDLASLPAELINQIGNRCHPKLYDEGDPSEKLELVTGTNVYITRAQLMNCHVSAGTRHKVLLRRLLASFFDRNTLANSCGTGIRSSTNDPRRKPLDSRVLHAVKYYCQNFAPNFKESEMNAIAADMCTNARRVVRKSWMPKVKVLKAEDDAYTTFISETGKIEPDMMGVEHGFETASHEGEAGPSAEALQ
UniProt P55786: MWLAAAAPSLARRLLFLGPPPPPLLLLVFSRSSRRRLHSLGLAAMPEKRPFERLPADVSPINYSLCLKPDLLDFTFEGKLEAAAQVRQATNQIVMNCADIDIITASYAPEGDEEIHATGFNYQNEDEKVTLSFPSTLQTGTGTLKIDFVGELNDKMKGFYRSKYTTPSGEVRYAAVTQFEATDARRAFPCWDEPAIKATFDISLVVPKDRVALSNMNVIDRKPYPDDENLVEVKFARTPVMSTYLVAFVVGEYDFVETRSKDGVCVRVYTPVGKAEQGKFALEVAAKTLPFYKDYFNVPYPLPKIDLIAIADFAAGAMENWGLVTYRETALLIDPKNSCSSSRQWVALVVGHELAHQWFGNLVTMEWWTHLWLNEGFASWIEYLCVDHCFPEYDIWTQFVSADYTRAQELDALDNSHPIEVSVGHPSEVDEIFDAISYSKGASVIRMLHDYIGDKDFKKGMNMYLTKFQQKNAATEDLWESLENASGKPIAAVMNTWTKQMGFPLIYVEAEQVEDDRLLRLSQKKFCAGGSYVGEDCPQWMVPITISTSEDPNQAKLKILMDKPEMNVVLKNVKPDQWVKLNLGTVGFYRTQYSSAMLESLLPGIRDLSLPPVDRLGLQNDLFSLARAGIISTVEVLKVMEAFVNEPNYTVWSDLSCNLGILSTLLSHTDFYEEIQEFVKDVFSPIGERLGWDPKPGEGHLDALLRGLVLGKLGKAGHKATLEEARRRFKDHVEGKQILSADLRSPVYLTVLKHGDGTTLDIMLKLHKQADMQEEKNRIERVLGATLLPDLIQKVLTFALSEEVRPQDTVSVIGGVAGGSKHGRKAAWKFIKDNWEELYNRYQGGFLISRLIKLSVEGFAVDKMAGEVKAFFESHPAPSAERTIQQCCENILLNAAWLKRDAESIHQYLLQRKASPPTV
UniProt Q99733: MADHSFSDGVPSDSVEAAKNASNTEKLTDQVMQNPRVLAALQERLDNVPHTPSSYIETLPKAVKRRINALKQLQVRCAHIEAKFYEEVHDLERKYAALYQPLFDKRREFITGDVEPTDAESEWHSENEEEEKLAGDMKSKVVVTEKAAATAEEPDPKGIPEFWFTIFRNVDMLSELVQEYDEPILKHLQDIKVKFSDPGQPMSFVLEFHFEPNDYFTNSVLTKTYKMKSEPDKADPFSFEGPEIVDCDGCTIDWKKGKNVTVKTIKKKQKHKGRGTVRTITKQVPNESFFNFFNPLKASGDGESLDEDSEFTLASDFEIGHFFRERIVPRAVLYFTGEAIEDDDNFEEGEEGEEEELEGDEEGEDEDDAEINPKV
UniProt Q9Y6Q9, whole entry, looked up: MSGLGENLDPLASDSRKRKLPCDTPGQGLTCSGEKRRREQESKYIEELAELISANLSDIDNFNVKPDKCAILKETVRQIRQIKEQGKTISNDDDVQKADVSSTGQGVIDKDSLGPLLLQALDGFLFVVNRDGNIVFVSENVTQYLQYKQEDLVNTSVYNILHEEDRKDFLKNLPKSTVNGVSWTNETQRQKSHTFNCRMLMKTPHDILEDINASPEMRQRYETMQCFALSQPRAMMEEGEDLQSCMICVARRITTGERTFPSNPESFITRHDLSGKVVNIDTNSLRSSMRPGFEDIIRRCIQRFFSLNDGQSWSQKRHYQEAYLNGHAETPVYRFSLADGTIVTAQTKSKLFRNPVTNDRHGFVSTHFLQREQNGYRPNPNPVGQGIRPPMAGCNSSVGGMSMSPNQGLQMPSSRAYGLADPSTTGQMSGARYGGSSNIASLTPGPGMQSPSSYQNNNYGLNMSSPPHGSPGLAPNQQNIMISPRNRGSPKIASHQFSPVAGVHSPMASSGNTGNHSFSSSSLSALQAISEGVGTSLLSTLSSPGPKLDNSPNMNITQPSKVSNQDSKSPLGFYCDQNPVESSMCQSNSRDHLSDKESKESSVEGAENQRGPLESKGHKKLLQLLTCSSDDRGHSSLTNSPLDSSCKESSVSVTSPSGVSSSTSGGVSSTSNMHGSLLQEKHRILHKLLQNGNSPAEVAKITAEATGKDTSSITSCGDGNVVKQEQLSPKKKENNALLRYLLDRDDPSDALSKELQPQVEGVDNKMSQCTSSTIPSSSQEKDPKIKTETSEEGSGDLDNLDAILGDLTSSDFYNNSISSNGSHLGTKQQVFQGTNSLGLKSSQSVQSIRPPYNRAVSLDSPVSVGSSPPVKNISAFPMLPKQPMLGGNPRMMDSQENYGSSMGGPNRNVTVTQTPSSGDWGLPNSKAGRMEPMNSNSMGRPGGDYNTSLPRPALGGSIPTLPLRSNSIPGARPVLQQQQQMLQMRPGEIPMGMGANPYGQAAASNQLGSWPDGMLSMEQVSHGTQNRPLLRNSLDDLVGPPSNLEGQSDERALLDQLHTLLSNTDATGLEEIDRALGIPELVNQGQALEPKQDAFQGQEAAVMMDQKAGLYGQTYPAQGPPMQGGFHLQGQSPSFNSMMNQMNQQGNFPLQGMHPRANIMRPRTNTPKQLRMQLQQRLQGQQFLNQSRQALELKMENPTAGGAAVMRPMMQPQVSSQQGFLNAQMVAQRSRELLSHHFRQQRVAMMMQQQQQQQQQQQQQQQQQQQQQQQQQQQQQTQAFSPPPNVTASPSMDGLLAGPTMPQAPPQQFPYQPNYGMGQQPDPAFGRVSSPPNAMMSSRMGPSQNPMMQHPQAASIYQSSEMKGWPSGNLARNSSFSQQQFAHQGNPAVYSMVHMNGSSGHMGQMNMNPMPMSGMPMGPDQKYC
UniProt Q04721: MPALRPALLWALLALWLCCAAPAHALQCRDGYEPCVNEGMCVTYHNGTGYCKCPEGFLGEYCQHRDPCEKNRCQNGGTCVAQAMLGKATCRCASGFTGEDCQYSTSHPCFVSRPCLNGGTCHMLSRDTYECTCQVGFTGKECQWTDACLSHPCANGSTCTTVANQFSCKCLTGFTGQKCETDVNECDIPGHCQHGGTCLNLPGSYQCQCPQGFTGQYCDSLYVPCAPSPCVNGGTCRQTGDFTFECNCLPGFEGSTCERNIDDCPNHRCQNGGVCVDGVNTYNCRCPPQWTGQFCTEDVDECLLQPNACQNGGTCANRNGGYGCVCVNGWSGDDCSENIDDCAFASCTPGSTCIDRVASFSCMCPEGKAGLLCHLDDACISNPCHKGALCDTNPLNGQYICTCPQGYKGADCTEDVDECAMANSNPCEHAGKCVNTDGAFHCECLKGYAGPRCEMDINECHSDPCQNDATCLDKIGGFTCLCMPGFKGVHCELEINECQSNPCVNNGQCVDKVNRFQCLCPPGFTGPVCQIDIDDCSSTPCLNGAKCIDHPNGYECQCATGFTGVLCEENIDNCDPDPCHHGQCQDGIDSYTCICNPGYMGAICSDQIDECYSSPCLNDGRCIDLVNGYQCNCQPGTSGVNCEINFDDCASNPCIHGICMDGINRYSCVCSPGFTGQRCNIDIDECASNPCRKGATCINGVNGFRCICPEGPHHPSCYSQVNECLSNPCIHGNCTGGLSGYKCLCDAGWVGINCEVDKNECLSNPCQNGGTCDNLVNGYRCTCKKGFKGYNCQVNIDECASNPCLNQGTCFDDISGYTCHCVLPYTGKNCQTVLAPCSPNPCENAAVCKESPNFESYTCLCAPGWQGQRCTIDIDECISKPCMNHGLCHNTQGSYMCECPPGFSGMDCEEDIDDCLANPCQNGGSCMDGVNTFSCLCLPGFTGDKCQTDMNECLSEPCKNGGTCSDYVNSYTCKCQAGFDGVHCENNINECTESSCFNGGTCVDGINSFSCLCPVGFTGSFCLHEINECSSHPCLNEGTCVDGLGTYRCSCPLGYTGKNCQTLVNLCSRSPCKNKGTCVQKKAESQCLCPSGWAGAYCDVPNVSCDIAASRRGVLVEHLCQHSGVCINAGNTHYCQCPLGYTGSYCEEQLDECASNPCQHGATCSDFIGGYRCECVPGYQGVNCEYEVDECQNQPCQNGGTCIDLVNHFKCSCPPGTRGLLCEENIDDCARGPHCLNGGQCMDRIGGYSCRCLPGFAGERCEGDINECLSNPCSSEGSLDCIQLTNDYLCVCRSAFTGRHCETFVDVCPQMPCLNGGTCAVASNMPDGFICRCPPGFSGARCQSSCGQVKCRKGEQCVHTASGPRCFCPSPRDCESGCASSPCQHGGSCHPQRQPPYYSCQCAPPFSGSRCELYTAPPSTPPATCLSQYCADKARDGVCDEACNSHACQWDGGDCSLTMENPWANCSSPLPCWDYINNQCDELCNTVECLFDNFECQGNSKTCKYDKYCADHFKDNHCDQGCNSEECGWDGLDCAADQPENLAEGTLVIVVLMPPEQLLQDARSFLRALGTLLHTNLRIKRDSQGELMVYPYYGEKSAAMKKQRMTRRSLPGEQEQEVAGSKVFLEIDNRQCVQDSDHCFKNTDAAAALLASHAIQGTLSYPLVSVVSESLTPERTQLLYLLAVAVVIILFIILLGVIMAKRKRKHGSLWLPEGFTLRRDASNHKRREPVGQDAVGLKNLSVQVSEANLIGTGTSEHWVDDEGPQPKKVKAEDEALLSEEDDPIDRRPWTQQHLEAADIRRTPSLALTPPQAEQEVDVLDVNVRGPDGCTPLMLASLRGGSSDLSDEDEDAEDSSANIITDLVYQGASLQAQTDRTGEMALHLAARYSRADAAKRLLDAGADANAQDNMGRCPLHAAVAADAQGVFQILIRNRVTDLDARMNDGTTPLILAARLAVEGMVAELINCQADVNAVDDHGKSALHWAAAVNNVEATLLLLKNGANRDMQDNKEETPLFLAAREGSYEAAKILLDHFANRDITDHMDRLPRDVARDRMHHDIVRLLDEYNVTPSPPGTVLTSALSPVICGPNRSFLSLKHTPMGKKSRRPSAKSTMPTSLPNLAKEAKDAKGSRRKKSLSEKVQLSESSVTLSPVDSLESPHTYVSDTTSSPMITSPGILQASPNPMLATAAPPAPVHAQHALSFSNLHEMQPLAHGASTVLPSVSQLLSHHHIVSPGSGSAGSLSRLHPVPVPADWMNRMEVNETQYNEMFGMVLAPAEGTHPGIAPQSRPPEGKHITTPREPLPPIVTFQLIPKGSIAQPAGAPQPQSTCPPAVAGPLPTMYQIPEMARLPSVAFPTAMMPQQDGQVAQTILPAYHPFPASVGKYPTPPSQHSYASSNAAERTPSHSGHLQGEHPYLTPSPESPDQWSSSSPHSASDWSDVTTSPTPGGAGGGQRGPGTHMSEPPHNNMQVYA

Compound in the assay: Nc1nc2c(ncn2[C@@H]2O[C@H](COP(=O)(O)OP(=O)(O)OP(=O)(O)O)[C@@H](O)[C@H]2O)c(=O)[nH]1
The experiment in a line: dose-dependent thermal stabilisation call (2D-TPP, DLPTP, 10% FDR) (binary (1 = stabilised)); higher = stabilised by the compound. To be noted: system: Jurkat gel-filtered lysate; concentration range 1-500 µM.

This is one part of the list.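 Rule for the calls: active = dose-dependent thermal stabilisation significant by F-test of dose-response against flat model at 10% FDR; inactive = not significant.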

As for PALB2 (UniProt Q86YC2), the “dose-dependent thermal stabilisation call” value is inactive: 0.
The figure for PAIP1 (UniProt Q9H074) is inactive: 0; for NUDT15 (UniProt Q9NV35) it is inactive: 0; for OLA1 (UniProt Q9NTK5) it is inactive: 0.
For NSL1 (UniProt Q96IY1), the “dose-dependent thermal stabilisation call” value is inactive: 0.
To NSUN6 (UniProt Q8TEA1) belongs active: 1; to NFYA (UniProt P23511), inactive: 0; to NACC1 (UniProt Q96RE7), inactive: 0.
Take NOP14 (UniProt P78316): the “dose-dependent thermal stabilisation call” value was inactive: 0.
Take OSTF1 (UniProt Q92882): the “dose-dependent thermal stabilisation call” value is inactive: 0.
For the target NPEPPS (UniProt P55786), the “dose-dependent thermal stabilisation call” value was inactive: 0.
In the case of OSGEP (UniProt Q9NPF4), the “dose-dependent thermal stabilisation call” value is active: 1.
Turning to PAK4 (UniProt O96013), the “dose-dependent thermal stabilisation call” value was active: 1.
The figure for NRAS (UniProt P01111) is active: 1.
In the case of NSMAF (UniProt Q92636), the “dose-dependent thermal stabilisation call” value is inactive: 0.
As to OSBPL11 (UniProt Q9BXB4), the “dose-dependent thermal stabilisation call” value was inactive: 0.
Turning to NAP1L4 (UniProt Q99733), the “dose-dependent thermal stabilisation call” value is inactive: 0.
NSMCE1 (UniProt Q8WV22): the “dose-dependent thermal stabilisation call” value is inactive: 0.
To NUFIP2 (UniProt Q7Z417) belongs inactive: 0.
As to PARP12 (UniProt Q9H0J9), the “dose-dependent thermal stabilisation call” value was inactive: 0.
Take NCOA3 (UniProt Q9Y6Q9): the “dose-dependent thermal stabilisation call” value was inactive: 0.
In the case of PALM (UniProt O75781), the “dose-dependent thermal stabilisation call” value is inactive: 0.
The figure for NDUFV3 (UniProt P56181) is inactive: 0.
To NOTCH2 (UniProt Q04721) belongs inactive: 0; to PARG (UniProt Q86W56), inactive: 0; to PARD3 (UniProt Q8TEW0), inactive: 0.
The figure for NFATC2 (UniProt Q13469) is active: 1.
